Results from PubChem BioAssay (EPA / NIEHS).
Inconclusive means that the source gave no clear call. Such entries were picked first, then a sample of the others. Where the call is inconclusive, the potency comes from a doubtful curve fit. Active and inactive are the calls of the source. How the source made its calls: active means hit-call score of the fitted dose curve at least 0.9, where 1 is the maximum; inconclusive means response in the unintended direction; inactive means score below 0.9.

By UniProt entry, the sequences of proteins in these tests, tags left out. Where a name states a change or a piece, a line headed by the entry shows the natural chain unless it says otherwise.
UniProt P43378: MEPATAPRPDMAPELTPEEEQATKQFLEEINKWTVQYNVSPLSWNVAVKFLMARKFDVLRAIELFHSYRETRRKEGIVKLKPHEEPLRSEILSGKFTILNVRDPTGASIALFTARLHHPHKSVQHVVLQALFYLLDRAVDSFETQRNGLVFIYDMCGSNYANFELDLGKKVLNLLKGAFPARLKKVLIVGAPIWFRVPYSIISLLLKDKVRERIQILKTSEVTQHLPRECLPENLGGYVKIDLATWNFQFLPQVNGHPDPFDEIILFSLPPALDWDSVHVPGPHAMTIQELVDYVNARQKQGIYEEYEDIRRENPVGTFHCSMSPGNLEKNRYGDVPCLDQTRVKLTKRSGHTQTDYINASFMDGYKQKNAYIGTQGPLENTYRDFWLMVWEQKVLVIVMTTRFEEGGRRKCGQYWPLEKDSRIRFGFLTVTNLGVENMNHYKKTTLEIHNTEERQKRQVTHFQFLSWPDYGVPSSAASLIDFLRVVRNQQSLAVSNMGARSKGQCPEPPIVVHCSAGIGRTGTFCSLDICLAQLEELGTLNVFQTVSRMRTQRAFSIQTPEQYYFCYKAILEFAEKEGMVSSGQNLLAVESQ
UniProt P29350: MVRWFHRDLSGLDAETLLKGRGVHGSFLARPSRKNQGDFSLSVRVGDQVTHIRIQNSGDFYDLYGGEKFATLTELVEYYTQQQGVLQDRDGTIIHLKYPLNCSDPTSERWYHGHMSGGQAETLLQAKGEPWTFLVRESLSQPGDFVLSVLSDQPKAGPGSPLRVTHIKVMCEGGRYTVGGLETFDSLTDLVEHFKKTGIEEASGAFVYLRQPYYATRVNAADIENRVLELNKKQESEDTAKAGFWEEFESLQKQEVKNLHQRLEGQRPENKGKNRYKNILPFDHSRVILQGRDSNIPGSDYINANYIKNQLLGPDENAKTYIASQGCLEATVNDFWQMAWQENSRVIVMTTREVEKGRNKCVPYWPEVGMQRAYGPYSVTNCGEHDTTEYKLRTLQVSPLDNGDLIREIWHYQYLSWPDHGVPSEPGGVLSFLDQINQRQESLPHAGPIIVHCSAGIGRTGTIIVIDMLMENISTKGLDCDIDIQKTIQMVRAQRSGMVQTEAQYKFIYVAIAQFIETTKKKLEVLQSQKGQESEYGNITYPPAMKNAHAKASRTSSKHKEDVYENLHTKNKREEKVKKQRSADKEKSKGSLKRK
UniProt P23467: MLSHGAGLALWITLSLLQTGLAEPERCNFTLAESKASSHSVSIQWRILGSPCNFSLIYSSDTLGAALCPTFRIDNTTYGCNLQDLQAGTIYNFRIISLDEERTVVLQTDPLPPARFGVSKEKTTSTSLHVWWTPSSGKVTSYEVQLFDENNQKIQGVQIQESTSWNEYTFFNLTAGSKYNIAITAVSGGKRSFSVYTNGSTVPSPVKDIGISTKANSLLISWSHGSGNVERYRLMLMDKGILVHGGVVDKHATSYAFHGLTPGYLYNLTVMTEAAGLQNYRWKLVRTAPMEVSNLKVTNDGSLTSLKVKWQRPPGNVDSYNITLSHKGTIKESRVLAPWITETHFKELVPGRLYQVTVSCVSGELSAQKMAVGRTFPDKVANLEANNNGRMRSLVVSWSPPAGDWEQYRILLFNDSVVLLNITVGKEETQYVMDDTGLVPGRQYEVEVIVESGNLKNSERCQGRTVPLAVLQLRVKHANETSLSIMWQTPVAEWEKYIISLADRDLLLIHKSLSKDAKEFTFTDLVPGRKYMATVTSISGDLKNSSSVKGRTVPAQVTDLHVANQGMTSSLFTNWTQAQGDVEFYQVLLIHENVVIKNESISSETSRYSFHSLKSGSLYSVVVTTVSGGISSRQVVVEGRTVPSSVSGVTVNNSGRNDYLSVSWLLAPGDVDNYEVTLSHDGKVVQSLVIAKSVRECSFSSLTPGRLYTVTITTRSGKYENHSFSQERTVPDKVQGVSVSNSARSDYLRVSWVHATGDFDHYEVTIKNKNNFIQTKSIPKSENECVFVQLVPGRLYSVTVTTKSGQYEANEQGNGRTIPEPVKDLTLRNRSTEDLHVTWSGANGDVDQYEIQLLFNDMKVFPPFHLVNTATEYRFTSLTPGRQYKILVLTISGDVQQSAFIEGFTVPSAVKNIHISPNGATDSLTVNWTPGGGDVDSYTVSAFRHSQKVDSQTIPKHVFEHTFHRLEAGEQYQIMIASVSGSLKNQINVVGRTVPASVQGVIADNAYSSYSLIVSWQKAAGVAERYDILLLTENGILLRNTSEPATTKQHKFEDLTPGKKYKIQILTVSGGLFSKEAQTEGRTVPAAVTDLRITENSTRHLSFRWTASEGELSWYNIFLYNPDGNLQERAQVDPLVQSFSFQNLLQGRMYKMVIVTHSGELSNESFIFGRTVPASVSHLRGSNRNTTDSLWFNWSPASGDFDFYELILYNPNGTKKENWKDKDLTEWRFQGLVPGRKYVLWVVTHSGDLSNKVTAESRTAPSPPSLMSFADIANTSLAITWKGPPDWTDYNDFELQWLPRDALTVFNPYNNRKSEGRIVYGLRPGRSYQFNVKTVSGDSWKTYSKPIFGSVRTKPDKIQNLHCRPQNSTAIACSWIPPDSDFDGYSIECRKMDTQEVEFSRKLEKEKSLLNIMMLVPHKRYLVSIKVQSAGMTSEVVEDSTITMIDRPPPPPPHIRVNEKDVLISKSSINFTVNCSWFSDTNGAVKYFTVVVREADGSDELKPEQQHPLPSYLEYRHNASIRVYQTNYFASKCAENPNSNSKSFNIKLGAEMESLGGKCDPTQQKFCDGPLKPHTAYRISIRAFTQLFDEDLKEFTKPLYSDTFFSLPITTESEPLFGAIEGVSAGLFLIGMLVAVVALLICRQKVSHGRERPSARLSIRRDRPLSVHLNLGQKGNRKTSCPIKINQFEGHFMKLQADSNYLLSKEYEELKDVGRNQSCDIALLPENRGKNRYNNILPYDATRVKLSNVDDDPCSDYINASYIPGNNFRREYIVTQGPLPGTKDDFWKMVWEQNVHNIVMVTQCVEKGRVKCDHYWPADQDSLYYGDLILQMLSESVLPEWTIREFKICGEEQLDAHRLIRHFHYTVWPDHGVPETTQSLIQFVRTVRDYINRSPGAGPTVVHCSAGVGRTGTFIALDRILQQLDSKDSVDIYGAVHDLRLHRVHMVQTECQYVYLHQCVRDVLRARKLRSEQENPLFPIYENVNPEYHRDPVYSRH
UniProt Q8IXJ6: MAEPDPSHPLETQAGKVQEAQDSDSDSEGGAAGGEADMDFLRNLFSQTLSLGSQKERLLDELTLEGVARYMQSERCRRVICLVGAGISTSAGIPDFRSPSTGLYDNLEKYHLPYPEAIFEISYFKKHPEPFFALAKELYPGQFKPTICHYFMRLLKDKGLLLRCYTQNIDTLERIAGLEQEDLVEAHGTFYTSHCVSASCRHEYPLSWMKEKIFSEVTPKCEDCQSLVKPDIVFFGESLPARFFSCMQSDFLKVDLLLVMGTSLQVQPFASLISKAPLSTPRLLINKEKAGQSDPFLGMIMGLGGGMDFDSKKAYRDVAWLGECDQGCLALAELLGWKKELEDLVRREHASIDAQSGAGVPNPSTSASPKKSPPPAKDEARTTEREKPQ

target: human Protein Tyrosine Phosphatase Non-receptor Type 9 (PTPN9), PTPN9 (gene 5780) (UniProt P43378); experiment: NVS_ENZ_hPTPN9: NovaScreen (NVS) Enzymatic Assay for human Protein Tyrosine Phosphatase Non-receptor Type 9 (PTPN9) (AID 2283209)
Experimental: NVS_ENZ_hPTPN9 is a biochemical, single-readout assay that uses extracted gene-proteins from SF9 in a cell-free assay. Measurements were taken 1.33 hours after chemical dosing in a 384-well plate.NVS_ENZ_hPTPN9 is one of one assay component(s) measured or calculated from the NVS_ENZ_hPTPN9 assay. It is designed to make measurements of enzyme activity, a form of enzyme reporter, as detected with fluorescence intensity signals by Fluorescence and electrophoretic mobility shift technology.Data from the assay component NVS_ENZ_hPTPN9 was analyzed into 1 assay endpoint. This assay endpoint, NVS_ENZ_hPTPN9, was analyzed in the positive analysis fitting direction relative to DMSO as the negative control and baseline of activity. Using a type of enzyme reporter, loss-of-signal activity can be used to understand changes in the enzymatic activity as they relate to the gene PTPN9. Furthermore, this assay endpoint can be referred to as a primary readout, because this assay has produced multiple assay endpoints where this one serves a enzymatic activity function. To generalize the intended target to other relatable targets, this assay endpoint is annotated to the phosphatase intended target family, where the subfamily is non-receptor tyrosine phosphatase.
Binding assays used specific radioligands (tritiated, iodinated) with non-radioactive competitive displacement ligands in agonist or antagonist protocols (as indicated) and various reference compounds and inhibitors to titrate specific binding to receptors and transporters. Most enzyme assays (CYPs, kinases, phosphatases, proteases, HDACs) used recombinant protein and specific substrates (fluorescence mostly, some colorimetric and radioactive) and inhibitors, followed by a biochemical separation of substrate and product. All assays for the biochemical HTS were initially run in duplicate at a single concentration (10 uM for CYP450 assays and 25 uM for all others). Assay-chemical combinations meeting a pre-defined threshold (e.g., 30% inhibition and other criteria defined below) were then run in singleton concentration-response format with maximum concentration of 20 uM for CYPs and 50 uM for all others. Each assay was run with positive and negative controls, and concurrent controls on every plate. The follow-up (secondary) screen tested active chemical-pairs in concentration series, as well as a few additional assays not tested in the primary screen, some selected negative inactives, and several cases re-run in the concentration series for confirmatory purposes.

AC50, active:
Nc1ccccc1N 9.86 µM

AC50, inconclusive:
O=C1CCCCCN1 2.43 µM
O=S1(=O)CCCO1 6.37 µM

outcome, inactive:
OCC(CO)(CBr)CBr

target: human Protein Tyrosine Phosphatase Non-receptor Type 6 (PTPN6), PTPN6 (gene 5777) (UniProt P29350); experiment: NVS_ENZ_hPTPN6: NovaScreen (NVS) Enzymatic Assay for human Protein Tyrosine Phosphatase Non-receptor Type 6 (PTPN6) (AID 2283210)
Summary of the method: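 Recombinant human PTPN6 from SF9 cells, enzyme activity followed by fluorescence after mobility-shift separation of substrate and product at 1.33 h. Chemicals first tested at a single 25 uM in duplicate, then confirmed across concentration series; loss of signal relative to DMSO.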

outcome, inactive:
NC(=O)NO
COc1ccc(C)cc1N
COc1ccc([N+](=O)[O-])cc1N
O=C(O)c1ccc([N+](=O)[O-])cc1
O=S1(=O)CCCO1

AC50, inconclusive:
COCCOCCOC 25 µM
CCC(C)=NO 25 µM
CN1CCC[C@H]1c1cccnc1 25 µM
c1ccc2cc3ccccc3cc2c1 33.4 µM
O=C1OC(c2ccc(O)cc2)(c2ccc(O)cc2)c2ccccc21 6.74 µM
CCC(C)c1ccccc1O (stereo unspecified) 6.67 µM
CCOC(=O)c1ccc(C2CCC(NC[C@H](O)COc3ccc(O)c(NS(C)(=O)=O)c3)CC2)cc1 (stereo partly specified) 23.4 µM

target: human Protein Tyrosine Phosphatase Receptor Type B (PTPRB), PTPRB (gene 5787) (UniProt P23467); experiment: NVS_ENZ_hPTPRB: NovaScreen (NVS) Enzymatic Assay for human Protein Tyrosine Phosphatase Receptor Type B (PTPRB) (AID 2283211)
Summary of the method: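 Recombinant human PTPRB with a fluorescent substrate, product separated by electrophoretic mobility shift; read 1 h after dosing. Primary screen in duplicate at 25 uM; actives then retested in concentration series; loss of signal versus DMSO.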

AC50, inconclusive:
C=O 26 µM
CCCN(CCC)C(=O)SCC 25 µM
CC(C)Nc1nc(N)nc(Cl)n1 0.0874 µM
COC(=O)CSc1cc(N=c2sc(=O)n3n2CCCC3)c(F)cc1Cl 25 µM
CCSC(=O)N(CC(C)C)CC(C)C 0.0354 µM

outcome, inactive:
COC(=O)c1ccccc1S(=O)(=O)NC(=O)Nc1nc(OC(F)F)cc(OC(F)F)n1
CCCN(CCC)C(=O)SCC
CCNc1nc(N)nc(Cl)n1

target: human Sirtuin 2 (SIRT2), SIRT2 (gene 22933) (UniProt Q8IXJ6); experiment: NVS_ENZ_hSIRT2: NovaScreen (NVS) Enzymatic Assay for human Sirtuin 2 (SIRT2) (AID 2283217)
Summary of the method: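 Single-point duplicate screen at 25 uM, then concentration-response (max 50 uM) for chemicals passing threshold. Enzyme activity of recombinant human SIRT2 measured after 1 hr by fluorescence with mobility-shift separation of product; DMSO baseline.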

AC50, inconclusive:
CC1(C)CC(N=C=O)CC(C)(CN=C=O)C1 (stereo unspecified) 25 µM
Cc1cc(F)ccc1-c1cc(N2CC[C@@H](O)[C@H]2CO)ncc1N(C)C(=O)C(C)(C)c1cc(C(F)(F)F)cc(C(F)(F)F)c1 0.816 µM
CC1(C)C(=O)N(Br)C(=O)N1Br 25 µM
CCCCC(CC)CO (stereo unspecified) 25 µM
CC(C)=CCC/C(C)=C\CO 0.557 µM
c1ccc2cc3ccccc3cc2c1 9.74 µM

outcome, inactive:
Cc1occc(=O)c1O
